Results are given in words; binding and its absence hold for the method and conditions named. Binding seen in cells or lysates may run through a third protein. Here binding means that the protein was enriched with, or labelled near, the bait; the list need not be complete.
Target: PARP4 (human (endogenous in iSAEC-K, A549 and patient-derived lung cell lines)) (UniProt Q9UKK3)
Assay: affinity purification with mass spectrometry; immunoprecipitation of endogenous PARP4 from SILAC-labelled extracts of iSAEC-K shControl cells, shPARP4 #1 cells as negative control; forward and reverse experiments; quantitative mass spectrometry

Sequences of proteins named here, by UniProt entry; tags and fusion partners are left off.
UniProt Q9UKK3: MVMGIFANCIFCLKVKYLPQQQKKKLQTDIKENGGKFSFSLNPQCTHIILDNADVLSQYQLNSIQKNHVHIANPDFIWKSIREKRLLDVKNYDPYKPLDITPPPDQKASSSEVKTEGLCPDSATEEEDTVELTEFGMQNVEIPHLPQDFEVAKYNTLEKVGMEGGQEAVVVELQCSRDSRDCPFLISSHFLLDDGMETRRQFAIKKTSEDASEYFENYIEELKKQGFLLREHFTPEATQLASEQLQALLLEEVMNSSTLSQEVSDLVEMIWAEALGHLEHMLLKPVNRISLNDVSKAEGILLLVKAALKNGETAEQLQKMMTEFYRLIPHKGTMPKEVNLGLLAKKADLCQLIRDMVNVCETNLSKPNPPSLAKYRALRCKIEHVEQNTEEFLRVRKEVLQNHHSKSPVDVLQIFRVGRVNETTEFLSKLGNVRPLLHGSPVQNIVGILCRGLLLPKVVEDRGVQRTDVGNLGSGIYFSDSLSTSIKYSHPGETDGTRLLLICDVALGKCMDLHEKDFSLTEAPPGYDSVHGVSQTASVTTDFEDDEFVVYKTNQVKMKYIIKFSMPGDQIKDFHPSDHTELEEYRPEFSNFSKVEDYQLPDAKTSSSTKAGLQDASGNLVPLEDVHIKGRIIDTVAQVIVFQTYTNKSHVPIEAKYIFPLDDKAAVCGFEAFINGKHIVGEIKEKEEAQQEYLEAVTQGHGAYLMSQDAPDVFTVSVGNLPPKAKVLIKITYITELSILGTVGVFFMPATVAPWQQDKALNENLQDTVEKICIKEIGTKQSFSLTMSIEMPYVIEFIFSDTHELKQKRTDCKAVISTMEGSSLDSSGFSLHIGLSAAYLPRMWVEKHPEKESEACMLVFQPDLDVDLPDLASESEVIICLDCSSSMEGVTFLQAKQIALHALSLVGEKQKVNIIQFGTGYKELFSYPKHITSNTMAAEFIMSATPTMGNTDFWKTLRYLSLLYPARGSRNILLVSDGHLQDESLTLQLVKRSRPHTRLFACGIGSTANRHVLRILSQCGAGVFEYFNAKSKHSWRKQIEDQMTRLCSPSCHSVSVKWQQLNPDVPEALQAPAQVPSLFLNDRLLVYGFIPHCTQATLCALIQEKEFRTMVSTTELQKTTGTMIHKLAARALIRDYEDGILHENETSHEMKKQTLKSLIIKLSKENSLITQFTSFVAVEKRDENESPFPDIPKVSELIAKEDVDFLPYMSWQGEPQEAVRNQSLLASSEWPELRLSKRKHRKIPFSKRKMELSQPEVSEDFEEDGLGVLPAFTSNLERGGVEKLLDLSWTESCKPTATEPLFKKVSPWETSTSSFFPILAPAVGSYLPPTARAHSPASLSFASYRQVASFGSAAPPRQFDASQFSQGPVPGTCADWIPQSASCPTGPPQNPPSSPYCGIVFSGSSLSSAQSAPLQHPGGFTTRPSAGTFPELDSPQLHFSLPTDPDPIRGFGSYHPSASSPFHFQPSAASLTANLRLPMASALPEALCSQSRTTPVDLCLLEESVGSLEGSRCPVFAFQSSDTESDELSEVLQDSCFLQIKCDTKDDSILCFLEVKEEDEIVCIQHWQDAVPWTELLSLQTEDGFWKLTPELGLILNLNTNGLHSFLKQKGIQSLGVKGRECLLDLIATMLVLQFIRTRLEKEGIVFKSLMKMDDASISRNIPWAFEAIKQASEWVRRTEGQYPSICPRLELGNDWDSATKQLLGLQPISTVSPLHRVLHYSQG
UniProt Q14764: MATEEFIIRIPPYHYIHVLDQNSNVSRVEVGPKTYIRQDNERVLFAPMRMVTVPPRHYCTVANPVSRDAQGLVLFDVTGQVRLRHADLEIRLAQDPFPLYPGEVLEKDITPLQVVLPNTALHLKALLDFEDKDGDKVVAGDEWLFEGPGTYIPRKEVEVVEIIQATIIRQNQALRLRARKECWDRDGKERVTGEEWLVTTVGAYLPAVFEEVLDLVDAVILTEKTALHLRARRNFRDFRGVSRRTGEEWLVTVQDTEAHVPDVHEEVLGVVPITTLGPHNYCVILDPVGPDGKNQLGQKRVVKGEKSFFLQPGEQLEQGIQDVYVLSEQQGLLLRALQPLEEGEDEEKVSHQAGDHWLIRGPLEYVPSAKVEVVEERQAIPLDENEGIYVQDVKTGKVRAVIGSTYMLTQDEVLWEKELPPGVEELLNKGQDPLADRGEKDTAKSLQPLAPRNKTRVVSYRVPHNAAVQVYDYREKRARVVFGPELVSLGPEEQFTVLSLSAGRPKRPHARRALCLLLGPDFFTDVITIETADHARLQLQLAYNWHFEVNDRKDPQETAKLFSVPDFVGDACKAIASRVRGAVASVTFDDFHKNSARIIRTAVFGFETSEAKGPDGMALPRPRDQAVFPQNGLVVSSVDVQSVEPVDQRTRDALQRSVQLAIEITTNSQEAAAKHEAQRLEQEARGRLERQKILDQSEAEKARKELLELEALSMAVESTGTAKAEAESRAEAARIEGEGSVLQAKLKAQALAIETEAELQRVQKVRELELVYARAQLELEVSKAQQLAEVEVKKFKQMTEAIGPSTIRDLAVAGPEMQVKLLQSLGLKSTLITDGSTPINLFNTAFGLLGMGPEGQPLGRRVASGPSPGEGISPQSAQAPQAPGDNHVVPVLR

binding: binds
Substance: major vault protein (MVP) (from UniProt Q14764 1-893)
